Source: paper PMC6901944
Results are given in words; binding and its absence hold for the method and conditions named. In cells and extracts the contact can be indirect. Some entries that bind do so weakly or less than the wild type.

Amino acid sequences for entries named in this document (tags omitted). A change or cut given only in a name is not applied to a line headed by its entry.
UniProt P51532: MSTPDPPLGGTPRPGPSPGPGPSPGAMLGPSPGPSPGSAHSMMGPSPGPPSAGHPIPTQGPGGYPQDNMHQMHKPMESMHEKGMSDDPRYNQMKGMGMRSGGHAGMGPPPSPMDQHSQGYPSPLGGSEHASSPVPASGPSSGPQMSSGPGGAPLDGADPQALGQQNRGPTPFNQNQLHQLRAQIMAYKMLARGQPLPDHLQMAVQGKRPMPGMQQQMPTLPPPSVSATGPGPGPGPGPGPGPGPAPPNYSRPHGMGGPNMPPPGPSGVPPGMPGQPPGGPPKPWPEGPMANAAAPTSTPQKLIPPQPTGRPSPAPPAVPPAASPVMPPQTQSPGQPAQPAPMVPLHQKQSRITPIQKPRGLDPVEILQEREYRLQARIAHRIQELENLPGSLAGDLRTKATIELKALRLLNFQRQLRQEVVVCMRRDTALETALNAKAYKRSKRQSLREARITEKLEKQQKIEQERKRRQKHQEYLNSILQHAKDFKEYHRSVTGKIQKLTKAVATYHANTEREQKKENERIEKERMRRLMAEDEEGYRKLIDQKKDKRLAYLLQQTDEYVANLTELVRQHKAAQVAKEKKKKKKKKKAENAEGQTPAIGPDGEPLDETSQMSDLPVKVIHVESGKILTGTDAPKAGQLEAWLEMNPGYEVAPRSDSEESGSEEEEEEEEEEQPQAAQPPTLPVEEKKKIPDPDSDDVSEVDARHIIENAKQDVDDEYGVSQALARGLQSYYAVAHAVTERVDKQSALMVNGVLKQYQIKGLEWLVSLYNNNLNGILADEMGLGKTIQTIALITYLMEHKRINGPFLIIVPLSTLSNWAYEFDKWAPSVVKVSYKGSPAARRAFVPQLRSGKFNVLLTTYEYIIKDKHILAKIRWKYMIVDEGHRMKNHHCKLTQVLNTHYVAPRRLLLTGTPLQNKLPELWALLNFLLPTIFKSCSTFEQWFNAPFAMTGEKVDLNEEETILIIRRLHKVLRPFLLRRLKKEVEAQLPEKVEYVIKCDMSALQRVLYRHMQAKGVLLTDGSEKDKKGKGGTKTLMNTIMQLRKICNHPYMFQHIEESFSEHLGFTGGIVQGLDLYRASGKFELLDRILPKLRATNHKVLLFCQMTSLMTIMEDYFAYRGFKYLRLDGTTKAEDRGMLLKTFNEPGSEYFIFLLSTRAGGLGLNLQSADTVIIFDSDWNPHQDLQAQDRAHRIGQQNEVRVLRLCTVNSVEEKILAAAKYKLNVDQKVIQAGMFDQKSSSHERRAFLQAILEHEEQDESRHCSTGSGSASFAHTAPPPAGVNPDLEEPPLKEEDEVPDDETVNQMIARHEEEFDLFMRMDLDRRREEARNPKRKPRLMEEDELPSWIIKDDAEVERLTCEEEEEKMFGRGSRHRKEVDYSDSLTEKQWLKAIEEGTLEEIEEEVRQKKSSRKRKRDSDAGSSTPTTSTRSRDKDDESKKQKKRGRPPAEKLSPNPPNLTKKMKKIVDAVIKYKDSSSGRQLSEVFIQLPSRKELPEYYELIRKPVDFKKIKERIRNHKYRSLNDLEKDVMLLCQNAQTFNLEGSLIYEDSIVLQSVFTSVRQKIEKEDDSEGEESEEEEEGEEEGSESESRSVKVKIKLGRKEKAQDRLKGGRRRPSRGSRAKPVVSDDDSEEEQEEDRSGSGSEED
UniProt P05412: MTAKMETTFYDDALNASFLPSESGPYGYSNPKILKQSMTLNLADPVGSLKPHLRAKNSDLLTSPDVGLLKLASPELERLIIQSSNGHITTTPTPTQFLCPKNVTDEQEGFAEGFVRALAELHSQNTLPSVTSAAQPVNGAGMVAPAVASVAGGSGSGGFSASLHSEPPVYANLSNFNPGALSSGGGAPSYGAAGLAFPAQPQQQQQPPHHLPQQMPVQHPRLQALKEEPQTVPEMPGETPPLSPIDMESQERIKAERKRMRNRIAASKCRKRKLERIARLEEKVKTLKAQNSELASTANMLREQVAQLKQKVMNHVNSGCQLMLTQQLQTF

Biological target: Brahma related gene (BRG1) (human (endogenous in HepG2)) (UniProt P51532)
Assay: co-IP; HepG2 cells treated with LPS plus palmitate; nuclear proteins extracted; anti-Brg1 or pre-immune IgG incubated with lysate overnight, absorbed on Protein A/G-plus agarose beads; Western blot

binding: binds
Substance: AP-1 (from UniProt P05412 1-331; P01100 1-380) (complex)
